Experimental data published in patent publication EP1382615A1.
Results are given in words; binding and its absence hold for the method and conditions named. Some results given as binding are weak or reduced against the parent protein; the word gives no strength.

Amino acid sequences for entries named in this document (tags omitted). Residues count along the entry.
UniProt P43121, residues 24-646: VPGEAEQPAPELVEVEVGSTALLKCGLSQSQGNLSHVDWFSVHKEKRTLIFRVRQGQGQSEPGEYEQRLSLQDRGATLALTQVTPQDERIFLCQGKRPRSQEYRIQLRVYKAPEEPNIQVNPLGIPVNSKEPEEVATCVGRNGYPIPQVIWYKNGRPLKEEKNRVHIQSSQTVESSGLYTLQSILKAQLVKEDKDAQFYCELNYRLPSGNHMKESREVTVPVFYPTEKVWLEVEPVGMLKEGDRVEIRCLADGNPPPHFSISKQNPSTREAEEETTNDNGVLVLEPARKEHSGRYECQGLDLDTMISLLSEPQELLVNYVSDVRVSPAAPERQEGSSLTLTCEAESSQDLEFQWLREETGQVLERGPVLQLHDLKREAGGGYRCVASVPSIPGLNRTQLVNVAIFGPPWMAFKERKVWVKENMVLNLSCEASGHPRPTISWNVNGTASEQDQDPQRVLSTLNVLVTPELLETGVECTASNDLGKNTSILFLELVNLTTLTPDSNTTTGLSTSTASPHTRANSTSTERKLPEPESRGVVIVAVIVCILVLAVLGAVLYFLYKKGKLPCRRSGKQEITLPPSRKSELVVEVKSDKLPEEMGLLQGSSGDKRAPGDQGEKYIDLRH

Assays:
[1] = target: MCAM (cell surface glycoprotein MUC18 precursor) (human) (UniProt P43121); assay: FACS on HT1080 cells vs Hs-27 control cells, 10 ug/ml scFv, FITC anti-E-tag detection
[2] = target: MCAM (cell surface glycoprotein MUC18 precursor) (human) (UniProt P43121); assay: Immunoprecipitation from HT1080 cell lysate on Streptactin Sepharose, SDS-PAGE, silver stain; band identified as MUC18/MCAM by MALDI-TOF (Example 10)

binding [1]: binds | binding [2]: binds
B1: scFv 6 (scFv)
scFv: EVQLLESGGGLVQPGGSLRLSCAASGFTFSSYAMSWVRQAPGKGLEWVSAISGSGGSTYYVDSVKGRFTISRDNSKNTLYLQMNSLRAEDTAVYYCARDIWGVTTAFDYWGQGTTVTVSSGGGGSGGGGSGGGGSALSSELTQDPAVSVALGQTVRITCQGDSLRSYYASWYQQKPGQAPVLVIYGKNKRPSGIPDRFSGSTSGDTASLSITGALADDEADYYCHSRDSSGDQILFGGGTKLTVLGAAAGAPVPYPDPLEPRGAASAWSHPQFEK
